The other results are listed elsewhere or left out.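 How the source made its calls: active = dose-dependent thermal stabilisation significant by F-test of dose-response against flat model at 10% FDR; inactive = not significant.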
These targets were tested with Nc1nc2c(ncn2[C@@H]2O[C@H](COP(=O)(O)OP(=O)(O)OP(=O)(O)O)[C@@H](O)[C@H]2O)c(=O)[nH]1 (assay: dose-dependent thermal stabilisation call (2D-TPP, DLPTP, 10% FDR) (binary (1 = stabilised)); higher = stabilised by the compound). Details: system: Jurkat gel-filtered lysate; concentration range 1-500 µM.

Protein sequences, listed by entry. Tags and fused reporters are not part of them. Lines headed by an entry give the natural chain unless they say otherwise; changes in a name come on top.
UniProt Q32P51: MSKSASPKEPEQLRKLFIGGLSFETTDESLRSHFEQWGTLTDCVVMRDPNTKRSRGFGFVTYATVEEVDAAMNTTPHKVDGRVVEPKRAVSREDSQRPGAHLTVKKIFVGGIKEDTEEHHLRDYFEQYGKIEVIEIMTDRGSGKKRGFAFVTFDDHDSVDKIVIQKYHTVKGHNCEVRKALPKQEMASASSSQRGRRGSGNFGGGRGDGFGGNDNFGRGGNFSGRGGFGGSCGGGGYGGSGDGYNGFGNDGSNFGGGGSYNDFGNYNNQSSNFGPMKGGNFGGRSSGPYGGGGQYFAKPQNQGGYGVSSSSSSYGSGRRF
UniProt Q9BSH5: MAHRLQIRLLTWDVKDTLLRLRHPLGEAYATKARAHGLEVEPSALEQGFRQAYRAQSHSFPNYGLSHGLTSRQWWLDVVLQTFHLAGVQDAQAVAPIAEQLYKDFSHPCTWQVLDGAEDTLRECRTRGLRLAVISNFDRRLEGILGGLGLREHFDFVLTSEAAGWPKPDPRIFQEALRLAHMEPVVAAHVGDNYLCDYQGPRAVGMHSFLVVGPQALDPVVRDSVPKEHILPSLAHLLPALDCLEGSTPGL
UniProt O75791: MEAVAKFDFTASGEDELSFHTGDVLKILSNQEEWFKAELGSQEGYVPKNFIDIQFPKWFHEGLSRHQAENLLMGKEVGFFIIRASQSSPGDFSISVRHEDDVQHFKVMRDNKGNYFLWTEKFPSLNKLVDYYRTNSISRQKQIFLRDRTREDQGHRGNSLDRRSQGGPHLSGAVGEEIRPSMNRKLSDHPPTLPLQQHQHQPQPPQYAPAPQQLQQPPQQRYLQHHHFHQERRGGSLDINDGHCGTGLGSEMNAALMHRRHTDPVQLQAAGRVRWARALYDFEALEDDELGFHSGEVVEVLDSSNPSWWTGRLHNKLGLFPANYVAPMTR
UniProt O14908: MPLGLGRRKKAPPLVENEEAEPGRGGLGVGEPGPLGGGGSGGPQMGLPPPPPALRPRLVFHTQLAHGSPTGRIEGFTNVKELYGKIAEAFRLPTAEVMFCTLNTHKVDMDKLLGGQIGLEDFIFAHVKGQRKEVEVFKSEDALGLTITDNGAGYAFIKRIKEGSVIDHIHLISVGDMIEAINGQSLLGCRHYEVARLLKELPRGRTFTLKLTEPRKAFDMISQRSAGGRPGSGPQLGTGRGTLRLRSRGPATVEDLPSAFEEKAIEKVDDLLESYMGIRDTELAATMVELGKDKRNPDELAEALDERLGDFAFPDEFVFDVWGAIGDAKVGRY
UniProt O95479: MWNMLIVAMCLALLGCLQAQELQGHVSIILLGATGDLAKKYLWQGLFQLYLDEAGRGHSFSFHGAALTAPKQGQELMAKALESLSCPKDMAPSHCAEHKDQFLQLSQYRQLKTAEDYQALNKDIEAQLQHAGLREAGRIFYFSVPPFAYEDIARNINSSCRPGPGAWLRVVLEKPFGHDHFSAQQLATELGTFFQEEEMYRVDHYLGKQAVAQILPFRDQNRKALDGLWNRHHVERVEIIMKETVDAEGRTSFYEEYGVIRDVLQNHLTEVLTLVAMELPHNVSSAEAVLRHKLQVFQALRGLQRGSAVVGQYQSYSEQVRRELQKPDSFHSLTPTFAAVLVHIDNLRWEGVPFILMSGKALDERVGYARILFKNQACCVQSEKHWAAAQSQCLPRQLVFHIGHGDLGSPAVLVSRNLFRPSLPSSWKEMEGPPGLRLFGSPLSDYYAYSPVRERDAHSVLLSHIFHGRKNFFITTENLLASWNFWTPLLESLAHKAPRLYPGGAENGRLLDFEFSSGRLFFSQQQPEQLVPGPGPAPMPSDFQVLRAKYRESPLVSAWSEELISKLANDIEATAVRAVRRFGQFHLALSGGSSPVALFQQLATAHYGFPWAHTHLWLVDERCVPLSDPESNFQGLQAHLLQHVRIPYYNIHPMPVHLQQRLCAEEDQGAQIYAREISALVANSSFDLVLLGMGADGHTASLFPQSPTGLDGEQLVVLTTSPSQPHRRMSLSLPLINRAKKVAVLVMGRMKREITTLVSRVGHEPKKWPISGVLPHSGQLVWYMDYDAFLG
UniProt O43708: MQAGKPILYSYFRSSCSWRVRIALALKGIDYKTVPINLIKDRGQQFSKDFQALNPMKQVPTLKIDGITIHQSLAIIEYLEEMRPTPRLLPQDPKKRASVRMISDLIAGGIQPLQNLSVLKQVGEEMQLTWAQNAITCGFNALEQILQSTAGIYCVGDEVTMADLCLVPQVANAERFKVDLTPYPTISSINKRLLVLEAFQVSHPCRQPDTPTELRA
UniProt P12081: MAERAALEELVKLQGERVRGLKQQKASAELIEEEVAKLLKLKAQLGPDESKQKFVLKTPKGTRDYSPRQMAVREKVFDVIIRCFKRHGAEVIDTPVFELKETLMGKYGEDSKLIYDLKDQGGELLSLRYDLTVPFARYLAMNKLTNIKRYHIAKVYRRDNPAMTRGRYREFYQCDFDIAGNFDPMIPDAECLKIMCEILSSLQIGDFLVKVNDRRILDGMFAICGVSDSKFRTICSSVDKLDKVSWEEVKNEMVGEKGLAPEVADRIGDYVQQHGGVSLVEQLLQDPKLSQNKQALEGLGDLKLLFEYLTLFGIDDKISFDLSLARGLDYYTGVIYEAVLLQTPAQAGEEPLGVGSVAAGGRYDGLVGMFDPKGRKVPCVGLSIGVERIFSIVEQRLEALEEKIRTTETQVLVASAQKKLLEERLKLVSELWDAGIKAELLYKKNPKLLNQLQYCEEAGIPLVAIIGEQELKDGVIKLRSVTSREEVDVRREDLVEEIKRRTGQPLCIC
UniProt Q96RP9: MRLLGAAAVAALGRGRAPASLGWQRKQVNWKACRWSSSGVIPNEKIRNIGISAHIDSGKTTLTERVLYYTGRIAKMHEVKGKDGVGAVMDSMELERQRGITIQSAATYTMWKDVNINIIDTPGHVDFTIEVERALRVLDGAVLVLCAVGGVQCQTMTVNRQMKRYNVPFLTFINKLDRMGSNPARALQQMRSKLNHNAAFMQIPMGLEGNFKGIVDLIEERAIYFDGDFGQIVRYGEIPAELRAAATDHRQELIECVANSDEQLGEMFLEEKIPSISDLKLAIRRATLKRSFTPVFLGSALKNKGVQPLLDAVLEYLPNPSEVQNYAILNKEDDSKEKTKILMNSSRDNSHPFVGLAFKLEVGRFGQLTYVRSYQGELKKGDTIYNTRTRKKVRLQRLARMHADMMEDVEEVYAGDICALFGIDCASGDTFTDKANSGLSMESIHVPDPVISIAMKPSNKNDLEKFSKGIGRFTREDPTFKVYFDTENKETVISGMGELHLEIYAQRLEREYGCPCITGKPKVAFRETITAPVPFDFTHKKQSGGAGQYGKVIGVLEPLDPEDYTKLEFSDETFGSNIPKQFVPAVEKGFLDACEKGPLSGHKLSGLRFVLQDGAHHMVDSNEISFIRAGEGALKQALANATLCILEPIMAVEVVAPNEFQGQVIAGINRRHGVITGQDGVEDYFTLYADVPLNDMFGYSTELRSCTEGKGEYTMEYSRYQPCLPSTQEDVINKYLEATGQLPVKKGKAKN
UniProt P07910: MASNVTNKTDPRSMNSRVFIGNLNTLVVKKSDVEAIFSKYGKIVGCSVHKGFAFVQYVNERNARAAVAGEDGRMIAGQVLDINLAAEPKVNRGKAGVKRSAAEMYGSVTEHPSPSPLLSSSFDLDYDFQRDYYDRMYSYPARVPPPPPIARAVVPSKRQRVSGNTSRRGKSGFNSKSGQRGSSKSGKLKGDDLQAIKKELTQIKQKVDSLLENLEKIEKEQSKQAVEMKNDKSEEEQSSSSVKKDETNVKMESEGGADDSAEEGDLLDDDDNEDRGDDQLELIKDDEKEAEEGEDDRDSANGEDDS
UniProt Q9BTY7: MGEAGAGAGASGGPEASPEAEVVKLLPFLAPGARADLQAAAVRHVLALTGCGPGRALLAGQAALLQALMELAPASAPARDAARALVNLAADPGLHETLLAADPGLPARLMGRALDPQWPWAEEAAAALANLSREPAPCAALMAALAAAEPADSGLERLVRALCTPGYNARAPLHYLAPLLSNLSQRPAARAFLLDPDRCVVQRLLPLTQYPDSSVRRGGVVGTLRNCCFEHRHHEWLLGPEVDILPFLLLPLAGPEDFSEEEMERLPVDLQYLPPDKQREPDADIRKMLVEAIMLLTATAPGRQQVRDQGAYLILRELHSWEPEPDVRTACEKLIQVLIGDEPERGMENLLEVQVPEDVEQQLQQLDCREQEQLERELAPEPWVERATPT
UniProt Q7Z4H3: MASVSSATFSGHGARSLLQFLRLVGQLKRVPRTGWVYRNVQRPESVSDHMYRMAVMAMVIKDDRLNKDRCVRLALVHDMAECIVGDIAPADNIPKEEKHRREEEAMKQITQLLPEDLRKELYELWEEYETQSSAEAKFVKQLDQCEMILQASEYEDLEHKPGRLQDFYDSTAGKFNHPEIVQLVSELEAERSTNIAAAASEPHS
UniProt P34059: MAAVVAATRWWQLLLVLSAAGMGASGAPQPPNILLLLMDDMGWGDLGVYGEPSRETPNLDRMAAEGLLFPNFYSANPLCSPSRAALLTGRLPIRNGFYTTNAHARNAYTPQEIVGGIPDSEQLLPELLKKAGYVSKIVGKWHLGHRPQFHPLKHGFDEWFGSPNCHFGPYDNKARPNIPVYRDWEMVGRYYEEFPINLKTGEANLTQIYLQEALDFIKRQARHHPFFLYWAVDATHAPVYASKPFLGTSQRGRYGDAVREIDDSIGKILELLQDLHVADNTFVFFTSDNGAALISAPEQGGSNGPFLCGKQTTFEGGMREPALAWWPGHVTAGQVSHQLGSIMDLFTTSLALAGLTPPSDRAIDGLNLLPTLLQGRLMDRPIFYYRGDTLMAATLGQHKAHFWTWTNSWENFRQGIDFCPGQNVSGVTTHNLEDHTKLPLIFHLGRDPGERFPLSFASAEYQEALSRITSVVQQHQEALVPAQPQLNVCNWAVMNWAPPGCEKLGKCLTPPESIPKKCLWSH
UniProt P15586: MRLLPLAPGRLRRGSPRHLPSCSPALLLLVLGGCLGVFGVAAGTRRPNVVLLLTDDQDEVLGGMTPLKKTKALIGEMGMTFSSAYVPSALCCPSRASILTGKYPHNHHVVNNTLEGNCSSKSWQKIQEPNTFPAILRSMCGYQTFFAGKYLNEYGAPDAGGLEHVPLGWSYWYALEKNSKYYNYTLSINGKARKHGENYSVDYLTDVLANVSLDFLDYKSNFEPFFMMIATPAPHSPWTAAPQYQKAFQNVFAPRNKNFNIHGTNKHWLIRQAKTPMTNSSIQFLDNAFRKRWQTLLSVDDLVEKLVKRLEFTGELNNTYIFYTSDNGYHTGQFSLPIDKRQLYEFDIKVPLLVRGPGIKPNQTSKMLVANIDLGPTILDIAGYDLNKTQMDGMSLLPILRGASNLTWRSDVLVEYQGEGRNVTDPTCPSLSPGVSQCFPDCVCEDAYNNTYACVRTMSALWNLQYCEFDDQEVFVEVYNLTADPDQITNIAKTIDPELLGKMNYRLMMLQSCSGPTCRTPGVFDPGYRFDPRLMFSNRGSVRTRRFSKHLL
UniProt Q9UBQ7: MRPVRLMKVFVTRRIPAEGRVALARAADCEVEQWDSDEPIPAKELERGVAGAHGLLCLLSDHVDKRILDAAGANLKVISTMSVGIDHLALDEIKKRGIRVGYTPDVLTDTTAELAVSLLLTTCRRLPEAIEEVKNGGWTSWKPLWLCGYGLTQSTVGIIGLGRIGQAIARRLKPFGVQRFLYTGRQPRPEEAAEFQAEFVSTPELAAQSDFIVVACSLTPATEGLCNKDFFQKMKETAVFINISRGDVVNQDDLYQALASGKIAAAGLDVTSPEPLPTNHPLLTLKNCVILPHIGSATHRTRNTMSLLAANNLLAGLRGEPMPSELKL
UniProt Q92522: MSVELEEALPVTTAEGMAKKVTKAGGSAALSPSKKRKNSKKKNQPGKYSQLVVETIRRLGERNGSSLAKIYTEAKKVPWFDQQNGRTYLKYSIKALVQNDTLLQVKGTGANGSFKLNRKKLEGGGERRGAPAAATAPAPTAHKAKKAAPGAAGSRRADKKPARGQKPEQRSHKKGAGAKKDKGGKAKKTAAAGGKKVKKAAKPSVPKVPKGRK
UniProt Q10471: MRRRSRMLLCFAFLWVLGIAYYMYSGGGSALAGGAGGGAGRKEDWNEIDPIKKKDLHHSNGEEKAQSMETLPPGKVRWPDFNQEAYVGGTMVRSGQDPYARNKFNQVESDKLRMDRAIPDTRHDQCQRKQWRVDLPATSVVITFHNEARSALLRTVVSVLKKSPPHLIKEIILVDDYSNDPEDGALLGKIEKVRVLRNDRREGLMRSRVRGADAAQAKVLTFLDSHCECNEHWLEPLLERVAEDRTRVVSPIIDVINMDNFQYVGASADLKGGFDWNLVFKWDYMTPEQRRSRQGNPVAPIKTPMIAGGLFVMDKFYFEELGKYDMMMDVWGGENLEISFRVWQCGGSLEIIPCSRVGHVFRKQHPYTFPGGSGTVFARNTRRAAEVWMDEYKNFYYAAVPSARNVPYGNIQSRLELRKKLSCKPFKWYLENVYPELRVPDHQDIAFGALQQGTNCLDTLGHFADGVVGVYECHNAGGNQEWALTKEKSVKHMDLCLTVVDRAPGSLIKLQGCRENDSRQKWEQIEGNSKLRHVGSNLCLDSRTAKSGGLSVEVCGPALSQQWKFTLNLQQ

| Target | dose-dependent thermal stabilisation call |
| --- | --- |
| HNRNPA1L2 (UniProt Q32P51) | inactive: 0 |
| GTF2E2 (UniProt P29084) | inactive: 0 |
| HDHD3 (UniProt Q9BSH5) | inactive: 0 |
| GRAP2 (UniProt O75791) | active: 1 |
| HNRNPDL (UniProt O14979) | inactive: 0 |
| HDAC7 (UniProt Q8WUI4) | inactive: 0 |
| GINS1 (UniProt Q14691) | active: 1 |
| GCSH (UniProt P23434) | inactive: 0 |
| GIPC1 (UniProt O14908) | inactive: 0 |
| H6PD (UniProt O95479) | inactive: 0 |
| GSTZ1 (UniProt O43708) | active: 1 |
| GIMAP4 (UniProt Q9NUV9) | active: 1 |
| GORASP2 (UniProt Q9H8Y8) | inactive: 0 |
| HARS (UniProt P12081) | inactive: 0 |
| HMGN4 (UniProt O00479) | inactive: 0 |
| GOSR1 (UniProt O95249) | inactive: 0 |
| GPATCH2 (UniProt Q9NW75) | active: 1 |
| GPN3 (UniProt Q9UHW5) | active: 1 |

| Target | dose-dependent thermal stabilisation call |
| --- | --- |
| GDI1 (UniProt P31150) | active: 1 |
| GFM1 (UniProt Q96RP9) | active: 1 |
| HNRNPC (UniProt P07910) | inactive: 0 |
| HGH1 (UniProt Q9BTY7) | inactive: 0 |
| HDDC2 (UniProt Q7Z4H3) | inactive: 0 |
| HACE1 (UniProt Q8IYU2) | inactive: 0 |
| GALNS (UniProt P34059) | inactive: 0 |
| HCFC2 (UniProt Q9Y5Z7) | inactive: 0 |
| HEXIM1 (UniProt O94992) | inactive: 0 |
| GNS (UniProt P15586) | inactive: 0 |
| GABPA (UniProt Q06546) | inactive: 0 |
| GSE1 (UniProt Q14687) | inactive: 0 |
| GRHPR (UniProt Q9UBQ7) | active: 1 |
| H1FX (UniProt Q92522) | inactive: 0 |
| G3BP2 (UniProt Q9UN86) | inactive: 0 |
| GALNT2 (UniProt Q10471) | inactive: 0 |
| GCC2 (UniProt Q8IWJ2) | inactive: 0 |

A stretch taken from the entries so far:

| Target | dose-dependent thermal stabilisation call |
| --- | --- |
| GTF2E2 (UniProt P29084) | inactive: 0 |
| HDHD3 (UniProt Q9BSH5) | inactive: 0 |
| GRAP2 (UniProt O75791) | active: 1 |
| HNRNPDL (UniProt O14979) | inactive: 0 |
| HDAC7 (UniProt Q8WUI4) | inactive: 0 |
| GINS1 (UniProt Q14691) | active: 1 |
| GCSH (UniProt P23434) | inactive: 0 |
| GIPC1 (UniProt O14908) | inactive: 0 |

Reference: the supplement of paper PMC7666118
